PubChem BioAssay AID1259254 | NCATS – 2017

Assay: 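Gene knock-downs that lead to re-replication, shown by excess G2 DNA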 (primary screen)
Cell system: human HCT116 colorectal cancer cells
Reagent: single siRNA against human genes
Duration: 3 days
Detection: 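Nuclei stained with Hoechst and imaged; cell-cycle phase assigned by DNA content; G2 share scaled per plate, non-targeting siRNA 0%, GMNN siRNA 100%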
Direction: G2 robust z-score: higher = more G2 cells, more excess DNA replication
Hit rule: 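Active siRNAs have a G2 robust z of 5 or more median absolute deviations over the median, which in these data means about 38% or higher of GMNN control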
Shown is a random part of about 59,000 reagents tested. Of all reagents, about 1,550 (2.6%) were called active. 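G2 share is only a proxy for re-replication; each gene was hit by three separate siRNAs, and active genes were retested.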 The numbers tell different reagents against one gene apart. Not all columns of the deposit are shown. Not given: the amount of reagent.

{"Target gene": "FMR1NB (FMR1 neighbor)", "reagent no.": 1, "G2 robust z-score": -0.185, "outcome": "inactive"}
{"Target gene": "FMR1NB (FMR1 neighbor)", "reagent no.": 2, "G2 robust z-score": -1.14, "outcome": "inactive"}
{"Target gene": "FMR1NB (FMR1 neighbor)", "reagent no.": 3, "G2 robust z-score": 2.79, "outcome": "inactive"}
{"Target gene": "SLC2A6", "reagent no.": 1, "G2 robust z-score": 0.53, "outcome": "inactive"}
{"Target gene": "SLC2A6", "reagent no.": 2, "G2 robust z-score": -0.824, "outcome": "inactive"}
{"Target gene": "SLC2A6", "reagent no.": 3, "G2 robust z-score": 1.06, "outcome": "inactive"}
{"Target gene": "PLA2G7 (phospholipase A2 group VII)", "reagent no.": 1, "G2 robust z-score": -0.338, "outcome": "inactive"}
{"Target gene": "PLA2G7 (phospholipase A2 group VII)", "reagent no.": 2, "G2 robust z-score": -0.198, "outcome": "inactive"}
{"Target gene": "PLA2G7 (phospholipase A2 group VII)", "reagent no.": 3, "G2 robust z-score": -0.484, "outcome": "inactive"}
{"Target gene": "SIRPB2 (signal regulatory protein beta 2)", "reagent no.": 1, "G2 robust z-score": -0.624, "outcome": "inactive"}
{"Target gene": "SIRPB2 (signal regulatory protein beta 2)", "reagent no.": 2, "G2 robust z-score": 2.36, "outcome": "inactive"}
{"Target gene": "SIRPB2 (signal regulatory protein beta 2)", "reagent no.": 3, "G2 robust z-score": 1.43, "outcome": "inactive"}
{"Target gene": "ZNF530 (zinc finger protein 530)", "reagent no.": 1, "G2 robust z-score": -0.71, "outcome": "inactive"}
{"Target gene": "ZNF530 (zinc finger protein 530)", "reagent no.": 2, "G2 robust z-score": -0.444, "outcome": "inactive"}
{"Target gene": "ZNF530 (zinc finger protein 530)", "reagent no.": 3, "G2 robust z-score": 0.388, "outcome": "inactive"}
{"Target gene": "HCN3", "reagent no.": 1, "G2 robust z-score": 0.606, "outcome": "inactive"}
{"Target gene": "HCN3", "reagent no.": 2, "G2 robust z-score": -1.05, "outcome": "inactive"}
{"Target gene": "HCN3", "reagent no.": 3, "G2 robust z-score": 0.344, "outcome": "inactive"}
{"Target gene": "IKBKE (inhibitor of nuclear factor kappa B kinase subunit epsilon)", "reagent no.": 1, "G2 robust z-score": 7.32, "outcome": "active"}
{"Target gene": "IKBKE (inhibitor of nuclear factor kappa B kinase subunit epsilon)", "reagent no.": 2, "G2 robust z-score": 0.875, "outcome": "inactive"}
{"Target gene": "IKBKE (inhibitor of nuclear factor kappa B kinase subunit epsilon)", "reagent no.": 3, "G2 robust z-score": -0.414, "outcome": "inactive"}
{"Target gene": "SLC30A1", "reagent no.": 1, "G2 robust z-score": 0.341, "outcome": "inactive"}
{"Target gene": "SLC30A1", "reagent no.": 2, "G2 robust z-score": -1.07, "outcome": "inactive"}
{"Target gene": "SLC30A1", "reagent no.": 3, "G2 robust z-score": -1.37, "outcome": "inactive"}

3 of these entries in another layout.
Target gene | reagent no. | G2 robust z-score | outcome
SLC2A6 | 3 | 1.06 | inactive
PLA2G7 (phospholipase A2 group VII) | 1 | -0.338 | inactive
PLA2G7 (phospholipase A2 group VII) | 2 | -0.198 | inactive
